Where a name gives a salt, the structure may show the parent alone. The list shows a part of the results. Part of the spread comes from offsets between plates or batches.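 The strain is a K-12 laboratory model grown without shaking in 96-well plates, and biofilm is the crystal violet stain retained on the wells, read as absorbance. Drugs were picked as candidate specific biofilm blockers when they cut staining strongly but slowed free-floating growth by less than 70%.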
test system: Escherichia coli W3110; experiment: biofilm formation (crystal violet staining) relative to untreated control; higher = more biofilm; settings: 10 µM; 20-24 h; 30 °C; TB

SMILES | biofilm formation [%]
Cc1scc2c1N(C(=O)CN1CCN(C)CC1)c1ccccc1NC2=O [Telenzepine dihydrochloride] | 73
Cn1c(=O)c2nc[nH]c2n(C)c1=O [Theophylline monohydrate] | 81
c1ccc(C2CN3CCSC3=N2)cc1 (stereo unspecified) [Tetramisole hydrochloride] | 73
C=C1c2cccc(O)c2C(=O)C2=C(O)[C@]3(O)C(=O)C(C(N)=O)=C(O)[C@@H](N(C)C)[C@@H]3[C@@H](O)[C@H]12 [Methacycline hydrochloride] | 20
CCOC(=O)c1ccc(OC(=O)CCCCCNC(=N)N)cc1 [Gabexate mesilate] | 71
CCCN[C@H]1CCc2nc(N)sc2C1 [Pramipexole dihydrochloride] | 62
Cc1cc(=O)oc2cc(O)ccc12 [Hymecromone] | 59
CC(COc1ccccc1)N(CCCl)Cc1ccccc1 (stereo unspecified) [Phenoxybenzamine hydrochloride] | 53
CCCNC(C)C(=O)Nc1ccccc1C (stereo unspecified) [Prilocaine hydrochloride] | 76
COc1ccc(CN(CCN(C)C)c2ccccn2)cc1 [Pyrilamine maleate] | 63
CC(=O)c1ccc(S(=O)(=O)NC(=O)NC2CCCCC2)cc1 [Acetohexamide] | 66
CCCCC[C@H](O)/C=C/[C@@H]1[C@@H](C/C=C\CCCC(=O)O)[C@@H](O)C[C@H]1O [Dinoprost trometamol] | 96
Clc1ccc(C(Cn2ccnc2)OCc2c(Cl)cccc2Cl)c(Cl)c1 (stereo unspecified) [Isoconazole] | 41
NC(=O)N1c2ccccc2C=Cc2ccccc21 [Carbamazepine] | 89
CN(C)CCN(Cc1cccs1)c1ccccn1 [Methapyrilene hydrochloride] | 53
COc1c(O[C@@H]2O[C@H](CO)[C@@H](O)[C@H](O)[C@H]2O)cc2c(c1OC)-c1ccc(SC)c(=O)cc1[C@@H](NC(C)=O)CC2 [Thiocolchicoside] | 62
O=C(Cn1ccnc1[N+](=O)[O-])NCCO [Etanidazole] | 72
O=C1CN2Cc3c(ccc(Cl)c3Cl)N=C2N1 [Anagrelide] | 63
CC(C)NCC(O)COc1ccc(COCCOC(C)C)cc1 (stereo unspecified) [Bisoprolol fumarate] | 83
Nc1nc(=S)c2ncn([C@@H]3O[C@H](CO)[C@@H](O)[C@H]3O)c2[nH]1 [Thioguanosine] | 56
CC(C)C(=O)OCC(=O)[C@@]12O[C@H](C3CCCCC3)O[C@@H]1C[C@H]1[C@@H]3CCC4=CC(=O)C=C[C@]4(C)[C@H]3[C@@H](O)C[C@@]12C [Ciclesonide] | 59

Part of the list above in order of molar mass, smallest number first.
SMILES | biofilm formation [%]
Cn1c(=O)c2nc[nH]c2n(C)c1=O [Theophylline monohydrate] | 81
CC(C)NCC(O)COc1ccc(COCCOC(C)C)cc1 (stereo unspecified) [Bisoprolol fumarate] | 83
C=C1c2cccc(O)c2C(=O)C2=C(O)[C@]3(O)C(=O)C(C(N)=O)=C(O)[C@@H](N(C)C)[C@@H]3[C@@H](O)[C@H]12 [Methacycline hydrochloride] | 20

— the supplement of paper PMC7580552
